The data set is described as follows: general procedure: Fmoc solid-phase peptide synthesis. The note with it: conjugation step.

Take Dodecasaccharide-PADRE Conjugate: the conjugation yield was determined as 54%.

lacto-N-fucopentaose II-PADRE conjugate came in with a conjugation yield of 45%.

The values above are taken from patent publication US6413935B1 (priority 1993, dated 2002).
